For at least one entry, the source does not settle the construct or the ends of the probe. For some of these results: A negative result means that nothing was seen under these conditions.
What was measured:
GST-Rlf431-513 (mouse) = assay: EMSA; conditions: 0.5 and 5 uM protein, 5 nM probe, 10 uM ZnSO4; 10 mM HEPES pH 7.9, 30 mM NaCl, 1 mM MgCl2, 20 uM EDTA, 10 mM DTT, 10 uM ZnSO4, 67 ug/mL acetylated BSA, 4% Ficoll; on ice 30 min; recombinant protein; protein details: N-terminal GST (pGEX-6P); label: 5' FAM; single-stranded DNA
GST-Rlf1001-1362 (mouse) = assay: EMSA; conditions: 0.5 and 5 uM protein, 5 nM probe, 10 uM ZnSO4; 10 mM HEPES pH 7.9, 30 mM NaCl, 1 mM MgCl2, 20 uM EDTA, 10 mM DTT, 10 uM ZnSO4, 67 ug/mL acetylated BSA, 4% Ficoll; on ice 30 min; recombinant protein; protein details: N-terminal GST (pGEX-6P); label: 5' FAM; single-stranded DNA

## TATCCTACCCATTGGGCTCATCTGATCCATCCGGTCCCGTCCACTCGGCTATGTTATGCTGTATTGCAGTCGTGTCGCGTCGAGCTGCCCTAATCCCACC [PP4 pentaprobe]
GST-Rlf431-513 (mouse)
  binding result: no binding
GST-Rlf1001-1362 (mouse)
  binding result: binds

## TATCTTACTTTAGTTTCATTTAATTGTGTTGTACTCTCCTCTGCGTTCACTTAGCTTAACTTGGTTTGGCTTGATTTGACTTCAGTTGCGCTCTATTCTA [PP2 pentaprobe]
GST-Rlf431-513 (mouse)
  binding result: no binding
GST-Rlf1001-1362 (mouse)
  binding result: binds

— article PMC4381397, “The recently identified modifier of murine metastable epialleles, Rearranged L-Myc Fusion, is involved in maintaining epigenetic marks at CpG island shores and enhancers”
